This is an account of results in publication PMC6588587.

The chains behind the UniProt entries cited, without tags or fusion partners. Residues count along the entry.
UniProt P0CI27, residues 87-246: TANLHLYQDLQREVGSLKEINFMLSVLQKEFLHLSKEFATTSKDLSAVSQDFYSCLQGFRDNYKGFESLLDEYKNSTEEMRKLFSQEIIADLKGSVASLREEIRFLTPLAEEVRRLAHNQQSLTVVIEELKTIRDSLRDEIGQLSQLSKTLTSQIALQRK

No constants are given. Whether binding was seen depends on the method and setting.

Assay [1] has as its target IncA_(87–246)-His6x (C. trachomatis) (UniProt P0CI27). The assay is described as follows: crystal structure; hanging drop, 0.2 M sodium acetate trihydrate pH 8.0, 20% PEG 3350; space group P2_(1), one copy in the asymmetric unit; 1.12 Å; both purified.
Assay [2] shares this target. The assay is described as follows: AUC; sedimentation velocity; IncA samples at 75 μM and 150 μM in 20 mM HEPES pH 7.5, 150 mM NaCl, 1 mM DTT, 45,000 rpm, 4 °C; c(s) distribution in SEDFIT; both purified.

With “IncA_(87–246)-His6x (from UniProt P0CI27 87-246) (domain or fragment)”, the binding entry in assay [1] was “no binding”; in assay [2], “no binding (tested: 75 μM and 150 μM)”.
